Results from publication PMC5562876, “The integration of Gβ and MAPK signaling cascade in zygote development” (Scientific Reports, 2017).
Results are given in words; binding and its absence hold for the method and conditions named. For some assays here: In cells and extracts the contact can be indirect. Some results given as binding are weak or reduced against the parent protein; the word gives no strength. For some assays here: Tags and fused reporters may be left off the sequences shown.

Amino acid sequences for entries named in this document (tags omitted).
UniProt Q39026: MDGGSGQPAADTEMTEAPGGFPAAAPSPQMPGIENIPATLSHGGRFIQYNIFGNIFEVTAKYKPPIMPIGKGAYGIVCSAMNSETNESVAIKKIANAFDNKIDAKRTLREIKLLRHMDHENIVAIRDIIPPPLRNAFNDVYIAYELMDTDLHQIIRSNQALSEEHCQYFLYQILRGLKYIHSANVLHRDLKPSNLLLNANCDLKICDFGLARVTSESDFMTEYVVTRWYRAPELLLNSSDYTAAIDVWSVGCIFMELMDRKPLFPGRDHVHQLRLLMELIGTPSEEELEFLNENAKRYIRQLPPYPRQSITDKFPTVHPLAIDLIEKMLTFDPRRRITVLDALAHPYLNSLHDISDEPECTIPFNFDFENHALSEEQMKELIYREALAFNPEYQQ

T1: MKK4-nLUC (Arabidopsis thaliana) (UniProt O80397)
T1 sequence: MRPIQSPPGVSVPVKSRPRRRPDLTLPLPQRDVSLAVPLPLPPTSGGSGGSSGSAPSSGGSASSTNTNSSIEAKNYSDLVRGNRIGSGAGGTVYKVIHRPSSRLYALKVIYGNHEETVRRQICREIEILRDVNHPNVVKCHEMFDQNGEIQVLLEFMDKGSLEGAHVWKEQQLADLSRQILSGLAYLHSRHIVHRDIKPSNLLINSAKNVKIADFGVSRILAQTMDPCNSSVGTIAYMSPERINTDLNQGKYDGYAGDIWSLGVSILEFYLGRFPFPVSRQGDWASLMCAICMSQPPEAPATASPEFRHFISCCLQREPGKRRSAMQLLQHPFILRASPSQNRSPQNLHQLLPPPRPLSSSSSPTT

T2: MKK5-nLUC (Arabidopsis thaliana) (UniProt Q8RXG3)
T2 sequence: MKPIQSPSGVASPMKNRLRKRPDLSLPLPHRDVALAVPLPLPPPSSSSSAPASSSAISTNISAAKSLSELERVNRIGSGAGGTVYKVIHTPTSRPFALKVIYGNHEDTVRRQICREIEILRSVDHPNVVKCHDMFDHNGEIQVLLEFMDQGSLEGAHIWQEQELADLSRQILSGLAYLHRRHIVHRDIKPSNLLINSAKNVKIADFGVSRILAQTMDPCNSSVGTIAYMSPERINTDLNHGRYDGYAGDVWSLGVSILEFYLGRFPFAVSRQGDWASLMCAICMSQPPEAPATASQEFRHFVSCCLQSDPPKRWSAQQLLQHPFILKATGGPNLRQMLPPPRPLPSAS

T3: MPK3-nLUC (Arabidopsis thaliana) (UniProt Q39023)
T3 sequence: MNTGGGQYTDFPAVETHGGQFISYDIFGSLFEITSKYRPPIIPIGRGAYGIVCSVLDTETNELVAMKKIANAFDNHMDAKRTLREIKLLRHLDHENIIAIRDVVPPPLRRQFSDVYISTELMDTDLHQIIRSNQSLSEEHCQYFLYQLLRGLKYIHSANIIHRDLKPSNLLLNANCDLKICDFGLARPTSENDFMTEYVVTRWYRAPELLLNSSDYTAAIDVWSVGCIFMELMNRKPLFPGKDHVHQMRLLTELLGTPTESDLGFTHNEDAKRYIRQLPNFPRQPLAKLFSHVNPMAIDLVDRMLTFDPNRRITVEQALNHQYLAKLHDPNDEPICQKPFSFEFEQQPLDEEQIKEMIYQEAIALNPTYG

T4: YDA-Kinase-nLUC (Arabidopsis thaliana) (UniProt Q9CAD5)
T4 sequence: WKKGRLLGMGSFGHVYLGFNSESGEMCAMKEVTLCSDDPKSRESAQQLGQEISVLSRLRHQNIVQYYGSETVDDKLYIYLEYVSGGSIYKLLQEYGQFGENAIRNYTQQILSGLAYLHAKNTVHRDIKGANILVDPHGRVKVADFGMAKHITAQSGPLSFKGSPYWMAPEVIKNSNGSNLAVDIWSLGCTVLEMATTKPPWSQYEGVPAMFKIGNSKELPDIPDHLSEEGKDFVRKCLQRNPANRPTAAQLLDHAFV

T5: YDA-nLUC (Arabidopsis thaliana) (UniProt Q9CAD5)
T5 sequence: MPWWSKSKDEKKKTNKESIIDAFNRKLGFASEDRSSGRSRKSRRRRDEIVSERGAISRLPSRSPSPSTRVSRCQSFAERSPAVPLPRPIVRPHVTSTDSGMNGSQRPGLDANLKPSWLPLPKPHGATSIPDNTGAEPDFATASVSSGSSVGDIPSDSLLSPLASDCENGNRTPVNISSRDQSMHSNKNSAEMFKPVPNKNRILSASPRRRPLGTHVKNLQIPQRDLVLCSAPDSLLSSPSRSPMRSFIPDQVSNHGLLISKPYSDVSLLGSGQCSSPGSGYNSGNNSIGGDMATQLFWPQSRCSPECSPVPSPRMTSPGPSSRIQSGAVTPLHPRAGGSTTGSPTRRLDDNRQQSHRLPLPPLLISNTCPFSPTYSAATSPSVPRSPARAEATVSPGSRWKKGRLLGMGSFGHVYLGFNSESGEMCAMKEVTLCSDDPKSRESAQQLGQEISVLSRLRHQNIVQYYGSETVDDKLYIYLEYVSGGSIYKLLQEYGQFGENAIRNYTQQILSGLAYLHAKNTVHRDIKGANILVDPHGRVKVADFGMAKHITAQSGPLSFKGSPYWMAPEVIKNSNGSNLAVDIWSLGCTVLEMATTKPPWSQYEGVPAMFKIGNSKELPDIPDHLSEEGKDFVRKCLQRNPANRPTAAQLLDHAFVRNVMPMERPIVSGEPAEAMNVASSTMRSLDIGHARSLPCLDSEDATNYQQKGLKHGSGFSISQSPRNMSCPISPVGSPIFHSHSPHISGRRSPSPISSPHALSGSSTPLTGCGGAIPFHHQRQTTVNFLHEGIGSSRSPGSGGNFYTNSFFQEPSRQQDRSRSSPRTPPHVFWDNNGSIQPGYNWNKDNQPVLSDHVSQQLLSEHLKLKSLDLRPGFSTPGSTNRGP

T6: nLUC-YDA-Δ334 (Arabidopsis thaliana) (UniProt Q9CAD5)
T6 sequence: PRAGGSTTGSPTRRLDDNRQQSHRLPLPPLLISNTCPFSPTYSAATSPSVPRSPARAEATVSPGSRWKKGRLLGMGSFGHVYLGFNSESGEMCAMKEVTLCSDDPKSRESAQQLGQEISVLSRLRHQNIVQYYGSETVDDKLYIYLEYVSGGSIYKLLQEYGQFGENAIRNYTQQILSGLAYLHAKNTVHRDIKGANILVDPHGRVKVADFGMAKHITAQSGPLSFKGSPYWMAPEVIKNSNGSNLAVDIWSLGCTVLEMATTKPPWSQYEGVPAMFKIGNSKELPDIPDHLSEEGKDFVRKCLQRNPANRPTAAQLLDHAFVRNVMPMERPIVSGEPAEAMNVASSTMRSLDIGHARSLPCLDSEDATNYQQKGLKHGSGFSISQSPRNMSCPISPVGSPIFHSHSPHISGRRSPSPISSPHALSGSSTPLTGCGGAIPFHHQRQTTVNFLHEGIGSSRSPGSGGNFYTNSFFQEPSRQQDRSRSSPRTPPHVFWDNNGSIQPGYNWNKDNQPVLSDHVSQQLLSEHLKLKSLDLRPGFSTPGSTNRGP

T7: CFP^C-MKK5 (Arabidopsis thaliana) (UniProt Q8RXG3)
T7 sequence: T2 sequence

T8: kinase domain of YODA (purified, pull-down) (Arabidopsis thaliana) (UniProt Q9CAD5)
T8 sequence: T4 sequence

B1: cLUC-AGB1 (protein, UniProt P49177 1-377)
chain: MSVSELKERHAVATETVNNLRDQLRQRRLQLLDTDVARYSAAQGRTRVSFGATDLVCCRTLQGHTGKVYSLDWTPERNRIVSASQDGRLIVWNALTSQKTHAIKLPCAWVMTCAFSPNGQSVACGGLDSVCSIFSLSSTADKDGTVPVSRMLTGHRGYVSCCQYVPNEDAHLITSSGDQTCILWDVTTGLKTSVFGGEFQSGHTADVLSVSISGSNPNWFISGSCDSTARLWDTRAASRAVRTFHGHEGDVNTVKFFPDGYRFGTGSDDGTCRLYDIRTGHQLQVYQPHGDGENGPVTSIAFSVSGRLLFAGYASNNTCYVWDTLLGEVVLDLGLQQDSHRNRISCLGLSADGSALCTGSWDSNLKIWAFGGHRRVI
B2: CFP^C-AGB1 (protein, UniProt P49177 1-377)
chain: B1 chain
B3: CFP^N-AGB1 (protein, UniProt P49177 1-377)
chain: B1 chain
B4: cLUC-SSP (protein, UniProt Q7XJT7 1-465)
chain: MGCCYSLSSTVDPVQDHTTDASSEPRNGGGEDPPLTKFSFSALKTATNHFSPENIVSDQTSDVVFKGRLQNGGFVAIKRFNNMAWSDPKLFLEEAQRVGKLRHKRLVNLIGYCCDGDKRFLVADFMANDTLAKRLFQRKYQTMDWSIRLRVAYFVAEALDYCNTAGFASYNNLSAYKVLFDEDGDACLSCFGLMKEINNDQITTGSVNPENVIYRFGTVLVNLLSGKQIPPSHAPEMIHRKNVFKLMDPYLKGKFSIDEANVVYKLASQCLKYEGQESPNTKEIVATLETLQTRTEAPSYEVVEMTNQEKDASSSSNLSPLGEACLRMDLASIHSILVLAGYDDDKDIIELSFEEWIQEVKELQDVRRNGDRAFVEQDFKTAIACYSQFVEERSLVYPSVYARRSLSYLFCDEPEKALLDGMHAQGVFPDWPTAFYLQSVALAKLDMNTDSADTLKEAALLEVKK
B5: AGB1 (purified, pull-down) (natural protein, Arabidopsis thaliana, UniProt P49177 1-377, looked up)
chain: B1 chain
notes: AGB1, G protein beta subunit, Arabidopsis thaliana, At4G34460; source: E. coli, purified (glutathione agarose beads)
B6: SSP (purified, pull-down) (protein, UniProt Q7XJT7 1-465)
chain: B4 chain

What was measured:
[1] = biological target: T1, MKK4-nLUC (Arabidopsis thaliana); test: split reporter; firefly luciferase complementation imaging; 35S-driven nLUC and cLUC constructs co-infiltrated by agrobacterium GV3101 into N. benthamiana leaves, 3 days at 22 °C, CCD imaging
[2] = biological target: T2, MKK5-nLUC (Arabidopsis thaliana); test: as above
[3] = biological target: T3, MPK3-nLUC (Arabidopsis thaliana); test: as above
[4] = biological target: MPK6-nLUC (Arabidopsis thaliana) (UniProt Q39026); test: as above
[5] = biological target: T4, YDA-Kinase-nLUC (Arabidopsis thaliana); test: as above
[6] = biological target: T5, YDA-nLUC (Arabidopsis thaliana); test: as above
[7] = biological target: T6, nLUC-YDA-Δ334 (Arabidopsis thaliana); test: as above
[8] = biological target: CFP^N-MPK6 (Arabidopsis thaliana) (UniProt Q39026); test: split reporter; BiFC with CFP^N and CFP^C fusions (pSPYNE, pSPYCE) agroinfiltrated into N. benthamiana leaves, 3 days at 22 °C, confocal microscopy
[9] = biological target: T7, CFP^C-MKK5 (Arabidopsis thaliana); test: as above
[10] = biological target: T8, kinase domain of YODA (purified, pull-down) (Arabidopsis thaliana); test: pull-down; purified fusion proteins from E. coli incubated with glutathione agarose beads, 25 mM Tris-HCl pH 7.5, 100 mM NaCl, 1 mM DTT, 1 hr; seven washes with 0.1% Triton X-100; eluted with 15 mM GSH; immunoblot; both purified

Binder	binding [5]	binding [6]	binding [7]	binding [10]	also measured
B1	no binding	no binding	no binding		binding [1]: binds; binding [2]: binds; binding [3]: binds; binding [4]: binds
B2					binding [8]: binds
B3					binding [9]: binds
B4	no binding	no binding	no binding		
B5				no binding	
B6				no binding	
